According to article doi:10.1101/2020.12.15.422995:

Molecular target: T1, Fur (PerR homolog), 17.4 kDa (Bacillus subtilis) (UniProt P54574)
T1 sequence (looked up, limits assumed): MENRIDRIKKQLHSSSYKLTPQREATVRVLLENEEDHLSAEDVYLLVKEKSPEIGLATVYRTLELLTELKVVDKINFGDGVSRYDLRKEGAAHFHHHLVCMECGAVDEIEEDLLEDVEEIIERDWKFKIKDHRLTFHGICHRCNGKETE
Assay: EMSA
Details: EDTA

Question: Does “CCTGATAGGATGATGGATAATTAAGGCTTTTATCCACTTTTTACTGACATTTTG (double strand) [54-bp degenerate sloR promoter (Deg_sloR_CC1)]” bind?
Answer: no binding

For at least one entry, the source does not settle the construct or the ends of the probe. No signal at the amounts used counts as a negative. At least one verdict was read from the data and is not stated in words by the source. Where a protein sequence is shown, tags need not be part of it.
